Data as given in PubChem BioAssay AID504791 (Drosophila RNAi Screening Center, 2011).
The screen tested about 23,000 reagents; below is an unselected part of those with a known target gene and a result. In the full data, 199 (0.86%) are marked active. 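Plate-scaled ratios behind the calls are not deposited; printed light signals are raw; many rows marked increased or decreased are still called inactive.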 Unmarked entries are inactive. Names joined by + are all predicted targets of the reagent. No sequences are given here. The record does not give: the direction of the score.

Screen: 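Genes whose knock-down strengthens or weakens small-RNA reporter silencing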 (primary screen)
Cell system: Drosophila S2-derived reporter cells
Reagents: long dsRNA against Drosophila genes, about 150-250 ng dsRNA per well (siRNA assay); about 80-120 ng (miRNA assay)
Timing: about 5 days (siRNA assay); about 4 days (miRNA assay)
Conditions: copper sulfate induction of reporters: 25 µM (siRNA assay); 200 mM stated (miRNA assay), 1-2 days before reading
Read-out: 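Per-well ratio of Renilla over firefly light, expressed relative to that plate's average ratio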
Call rule: 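a well was a first-pass pick when its plate-scaled ratio rose above 1.5 (siRNA assay) or 1.6 (miRNA assay), or dropped below 0.6; a gene counted only if two separate dsRNAs agreed on retest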

| target gene | DRSC id | stable siRNA reporter change | miRNA reporter change | stable assay Renilla, run 1 (luminescence) | stable assay firefly, run 1 (luminescence) |
| --- | --- | --- | --- | --- | --- |
| CG14456 | DRSC11713 | – | – | 7383 | 5.09e5 |
| Dyro (Dpt-YFP repressor by overexpression) | DRSC10598 | – | – | 5088 | 2.12e5 |
| CG34288 | DRSC13564 | – | – | 6732 | 6.12e5 |
| arm (armadillo) | DRSC18738 | – | – | 8895 | 4.84e5 |
| CG14252 | DRSC14747 | – | – | 7114 | 3.55e5 |
| TwdlV (TweedleV) | DRSC12226 | – | – | 6274 | 3.19e5 |
| GABA-B-R3 (metabotropic GABA-B receptor subtype 3) | DRSC00561 | – | – | 8075 | 5.00e5 |
| CG8507 | DRSC16435 | – | – | 7675 | 4.12e5 |
| CG42656 | DRSC12472 | – | – | 5155 | 3.13e5 |
| sas (stranded at second) | DRSC12631 | – | – | 6678 | 3.13e5 |
| CG7879 | DRSC08600 | – | – | 5431 | 2.50e5 |
| CCT1 (Chaperonin containing TCP1 subunit 1) | DRSC16877 | – | – | 9143 | 3.73e5 |
| CG7173 | DRSC11812 | – | reporter ratio lowered past the hit cutoff | 6007 | 2.14e5 |
| CG7173 | DRSC23252 | – | – | 4144 | 3.39e5 |
| soti (scotti) | DRSC16432 | – | – | 8970 | 5.90e5 |
| Ubc84D (Ubiquitin conjugating enzyme 84D) | DRSC12610 | – | – | 6499 | 3.65e5 |
| Arfrp1 (ADP-ribosylation factor related protein 1) | DRSC18417 | reporter ratio lowered past the hit cutoff | – | 7630 | 7.17e5 |
| Nbr (Nibbler) | DRSC03166 | – | – | 15327 | 5.68e5 |
| Kmn1 (kinetochore Mis12-Ndc80 network component 1) | DRSC19666 | – | – | 5956 | 4.83e5 |
| gdl-ORF39 + gdl | DRSC11350 | – | – | 11110 | 4.73e5 |
| Obp58b (Odorant-binding protein 58b) | DRSC04161 | – | – | 6351 | 4.13e5 |
| Archease | DRSC16025 | – | – | 7652 | 4.42e5 |
| Su(P) (Suppressor of ref(2)P sterility) | DRSC11291 | – | – | 6767 | 3.95e5 |
| Pgcl (Pepsinogen C-like) | DRSC18815 | – | – | 5067 | 4.72e5 |
| dap (dacapo) | DRSC07601 | – | – | 7871 | 3.13e5 |
| rumi | DRSC15177 | reporter ratio raised past the hit cutoff | – | 9233 | 2.40e5 |
| Gr93d (Gustatory receptor 93d) | DRSC21941 | – | – | 8789 | 5.42e5 |
| CG13426 | DRSC06388 | – | – | 6450 | 3.63e5 |
| beta4GalNAcTA (beta1,4-N-acetylgalactosaminyltransferase A) | DRSC05944 | – | – | 3511 | 3.85e5 |
| CG31781 (retired record) | DRSC02431 | – | – | 55663 | 1.60e6 |
| CG31781 (retired record) | DRSC02432 | – | – | 7958 | 6.33e5 |
| CG32808 | DRSC17689 | – | – | 7970 | 4.01e5 |
| APP-BP1 (beta-Amyloid precursor protein binding protein 1) | DRSC10920 | – | – | 6064 | 3.53e5 |
| Topors (Topoisomerase I-interacting protein) | DRSC06531 | – | – | 8518 | 4.78e5 |

2 neighbouring entries from above:
| target gene | DRSC id | stable siRNA reporter change | miRNA reporter change | stable assay Renilla, run 1 (luminescence) | stable assay firefly, run 1 (luminescence) |
| --- | --- | --- | --- | --- | --- |
| Gr93d (Gustatory receptor 93d) | DRSC21941 | – | – | 8789 | 5.42e5 |
| CG13426 | DRSC06388 | – | – | 6450 | 3.63e5 |
